PubChem BioAssay AID686937 – Drosophila RNAi Screening Center, 2013
Test: 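Knock-downs that reduce output of a secreted reporter enzyme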 (primary screen). Cells: Drosophila S2 cells expressing secreted horseradish peroxidase. Reagent: long dsRNA against Drosophila genes. Time to read-out: about 5.5 days (5 days dsRNA, then 12 h reporter induction). Treatment: reporter expression induced after 5 days of dsRNA, read 12 h later; inducer not stated. Measured: 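Chemiluminescent measurement of peroxidase in the medium 12 h after reporter induction, following 5 days of dsRNA, given as a z-score per plate; higher means more secretion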. Scale: z-score: higher = more reporter secreted into medium.
The screen tested about 23,000 reagents; shown is a random part of those that have a named target and a result. 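Reduced-secretion tags in replicate 1 do not always agree with the z-scores; no criterion for assigning the tags was given.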 Names joined by + are all predicted targets of the reagent. Not all columns of the deposit are shown. No sequences are given here. Not given: the amount of reagent.

The opening 3 records, to show the layout:
predicted target | DRSC id | z-score, replicate 1 | z-score, replicate 2
CG33278 | DRSC10336 | -0.4 | -0.05
CG31145 | DRSC13634 | 0.26 | 0.29
CG31145 | DRSC14206 | 0.16 | 0.22

Main list, repeating the preview:
predicted target | DRSC id | z-score, replicate 1 | z-score, replicate 2
CG33278 | DRSC10336 | -0.4 | -0.05
CG31145 | DRSC13634 | 0.26 | 0.29
CG31145 | DRSC14206 | 0.16 | 0.22
CG31145 | DRSC14670 | -2.27 | -1.04
CG31145 | DRSC14671 | 0.17 | 0.5
CG42813 | DRSC15939 | 0.36 | 0.71
CG10839 | DRSC01965 | 0.16 | 0.31
CG14667 | DRSC12253 | 0.27 | -0.01
mRpL51 | DRSC02200 | -0.11 | 0.08
CG15468 | DRSC18051 | 0.09 | 0.41
CG13008 | DRSC19527 | 0.19 | 0.26
CG13008 | DRSC19528 | -0.03 | 0.19
CG11889 + CG11891 | DRSC14426 | 0.28 | 0.29
CG11889 + CG11891 | DRSC14427 | 0.45 | 0.37
BomBc2 | DRSC06502 | 0.05 | 0.02
CG13041 | DRSC09922 | 0.1 | 0.12
Agpat3 | DRSC10445 | 0.13 | 0.22
CG15818 | DRSC02505 | 0.23 | 0.37
CG6409 | DRSC10630 | -0.28 | 0.37
CG6409 | DRSC22330 | 1.24 | 0.51
GalT1 | DRSC22238 | 0.72 | 1.28
Ankle2 | DRSC20105 | -0.57 | -1.19
Ankle2 | DRSC20106 | 0.41 | 0.38
Art7 | DRSC04588 | 0.43 | 0.41
Jasper | DRSC16352 | 0.49 | 0.52
CG3634 | DRSC11747 | 0.27 | 0.11
CG10151 | DRSC05974 | 0.31 | 0.18
CG15525 | DRSC15062 | 0.22 | 0.27
CG32152 | DRSC22906 | -2.13 | -0.82
CG5139 | DRSC00681 | 0.08 | 0.05
CG7387 | DRSC10833 | 0.49 | 0.48
CG33061 | DRSC09938 | -0.02 | 0.23
CG33061 | DRSC22897 | -1.21 | -0.09
yellow-f2 | DRSC16372 | 0.15 | 0.34
CG30008 | DRSC21576 | 0.2 | 0.52
Ggamma1 | DRSC07435 | 0.36 | 0.44
OSCP1 | DRSC06304 | 0.34 | 0.54
CG10628 | DRSC02080 | 0.23 | 0.14
Alg-2 | DRSC07799 | 0.06 | 0.19
CG9997 | DRSC16591 | 0.24 | 0.31
CG11893 | DRSC14429 | 0.36 | 0.36
Stam | DRSC03444 | 0.18 | 0.04
Ype | DRSC20301 | 0.48 | 0.33
CG11454 | DRSC00310 | 0.06 | 0.07
CG7634 | DRSC11843 | 0.01 | -0.72
CG14072 | DRSC02375 | 0.28 | 0.28
CG17078 | DRSC00484 | 0.11 | 0.14
pst | DRSC11003 | -3.05 | 0.54
Dbp73D | DRSC11142 | 0.39 | 0.31
CG12986 | DRSC19506 | 0.12 | 0.43
CG8004 | DRSC10947 | 0.17 | 0.24
CG3618 | DRSC11746 | 0.24 | 0.09
Sys1 | DRSC14372 | -0.01 | -0.04
CG2129 | DRSC18209 | 0.67 | 0.41
CG14395 | DRSC14852 | -0.08 | 0.18
HSPC300 | DRSC22880 | -0.48 | 0.76
Adi1 | DRSC10945 | 0.17 | 0.54
Adi1 | DRSC21485 | -0.19 | -0.04
CG9445 | DRSC05006 | 0.45 | 0.41
Ir7b | DRSC18009 | -0.06 | -0.98
CG32267 | DRSC21561 | 0.2 | -0.79
CG42656 | DRSC12472 | -0.06 | 0.5
Klp31E | DRSC03354 | 0.12 | 0.17
Eip78C | DRSC11864 | 0.07 | -0.32
CG6094 | DRSC02927 | 0.14 | 0.25
CG6094 | DRSC22705 | -0.67 | -0.48
CheA29a | DRSC21486 | 0.04 | -0.11
mura | DRSC16483 | -0.43 | -0.93
mura | DRSC16484 | -5.77 | -2.84
Tim17b1 | DRSC12179 | 0.38 | 0.63
wts | DRSC17096 | -3.56 | -3.86
Rtnl2 | DRSC12609 | 0.23 | 0.78
Rtnl2 | DRSC21655 | -0.39 | -0.31
wrapper | DRSC04723 | 0.31 | 0.31
CG34135 + CG11768 | DRSC12702 | 0.02 | -0.21
CG14253 | DRSC14748 | 0.36 | 0.37
CG10177 | DRSC14201 | 0.45 | 0.4
ppk11 | DRSC02737 | 0.38 | 0.13
CG12116 | DRSC17812 | 0.31 | 0.7
gom | DRSC04690 | 0.14 | 0.39
AttD | DRSC16272 | -1.25 | -0.97
COX6B | DRSC19590 | -0.08 | -0.63
